{
  "source": "PubChem BioAssay AID1347076",
  "about": "(National Center for Advancing Translational Sciences (NCATS), 2019)",
  "note": "The whole screen tested about 400,000 compounds, of which about 13,000 (3.2%) were called active. The inconclusive results got no clear call from the source; some entries with a clear call stand among them for comparison. Calls follow the shape of the dose curve; as a rule, active = well fitted cell-killing curve with a large enough effect; inconclusive = small, poorly fitted or top-dose-only effect, or effect the other way; inactive = flat fitted curve, though single readings scatter. Where the call is inconclusive, the potency comes from a doubtful curve fit. Where a structure was tested more than once in an assay, its records may differ in their call. Potency is read from the fitted curve at half-maximal effect.",
  "data": [
    {"experiment": "qHTS assay for MDR1-selective chemotherapeutics: Primary screen using the drug-selected MDR subline cells KB-V1; also: nearly all actives have a fitted effect of over 60% in size", "details": "KB-V1 MDR cells viability, CellTiter-Glo, 72 h; series mostly up to 46.1 µM", "summary_of_the_method": "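KB-V1 cells (P-gp-expressing MDR subline of KB-3-1) in phenol-red-free DMEM with 10% FBS were exposed to library compounds over a concentration series for 72 h at 37 degrees C. Viability read by CellTiter-Glo luminescence; concentration-effect curves fitted after normalization.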", "values": [
      {"smiles": "O=C(/C=C/c1cccc([N+](=O)[O-])c1)NCCSCc1cccc(Cl)c1", "Potency": "inactive"},
      {"smiles": "Cc1ccc(NS(=O)(=O)c2ccc3c(c2)NC(=O)CCS3)c(Br)c1", "Potency": "active: 23.1 µM"},
      {"smiles": "N#Cc1nc(COc2ccccc2)oc1N1CCN(c2cccc(Cl)c2)CC1", "Potency": "inconclusive: 29.1 µM [cytotoxic, single point]"},
      {"smiles": "CCOC(=O)C1(CC2CCCCO2)CCN(Cc2cc3ccccc3[nH]2)CC1", "note": "(stereo not drawn)", "Potency": "inconclusive: 6.51 µM [cytotoxic, partial curve]"},
      {"smiles": "Cc1onc(-c2ccccc2)c1C(=O)Nc1sc2c(c1C#N)CCC(C)C2", "note": "(stereo not drawn)", "Potency": "inconclusive: 18.4 µM [cytotoxic, single point]"},
      {"smiles": "CCCCC1=CC2=C(c3ccco3)C(=O)C(C)(OC(=O)c3ccc(OC)cc3)C(=O)C2=CN1CCOC", "note": "(stereo not drawn)", "Potency": "inactive"},
      {"smiles": "Clc1cccc(Cc2c(-c3ccco3)nc3c4ccccc4ccn23)c1", "Potency": "inconclusive: 7.31 µM [rising, partial curve]"},
      {"smiles": "COc1ccc2c(c1OC)C(C1c3c(cc4c(c3OC)OCO4)CCN1C)OC2=O", "note": "(stereo not drawn)", "Potency": "inconclusive: 18.4 µM [cytotoxic, single point]"},
      {"smiles": "CC1=CC(C)(C)N(C(=O)CSc2nnc(N)s2)c2cc(C)c(C)cc21", "Potency": "active: 11.6 µM"},
      {"smiles": "CC1CCC(NC(=O)CN(C)S(=O)(=O)c2cccc3cccnc23)CC1", "note": "(stereo not drawn)", "Potency": "inconclusive: 5.8 µM [cytotoxic, partial curve]"},
      {"smiles": "O=C(NNC(=S)Nc1ccccc1)c1ccccc1[N+](=O)[O-]", "Potency": "inconclusive: 18.4 µM [rising, partial curve]"},
      {"smiles": "CCC(C(=O)NCCC(C)C)n1ccc2cc(S(=O)(=O)N3CCCCC3)ccc21", "note": "(stereo not drawn)", "Potency": "inactive"},
      {"smiles": "CCOC(=O)c1c(-c2ccccc2)c[nH]c1C", "Potency": "inconclusive: 29.1 µM [rising, single point]"},
      {"smiles": "CC1O[C@H](OC2C(COC3OC(CO)C(O)[C@H](O)C3O)OC(OC3CC[C@]4(C)C(CC[C@@]5(C)[C@@H]4C=C[C@]46OC[C@@]7(CCC(C)(C)C[C@H]74)C(O)C[C@@]56C)C3(C)C)C(O)C2O)C(O)C(O)C1O", "note": "(stereo partly drawn)", "Potency": "inconclusive: 8.2 µM [rising, partial curve, poor fit]"},
      {"smiles": "Cc1cccc(NC(=O)C2CCCN2C(=O)Oc2ccccc2)c1", "note": "(stereo not drawn)", "Potency": "inconclusive: 29.1 µM [cytotoxic, single point]"},
      {"smiles": "O=C(NCCS(=O)(=O)NCc1ccccc1Cl)c1ccccc1", "Potency": "inconclusive: 20.6 µM [cytotoxic, partial curve]"},
      {"smiles": "COC(=O)COc1ccc(C(c2c(C)[nH][nH]c2=O)c2c(C)[nH][nH]c2=O)cc1", "Potency": "inconclusive: 29.1 µM [rising, single point]"},
      {"smiles": "O=C(NC1CCCCC1)c1cc(-c2ccccc2Cl)on1", "Potency": "inconclusive: 23.1 µM [cytotoxic, partial curve]"},
      {"smiles": "Cc1cccc(NC(=S)N/N=C2/CCCCc3ccccc32)c1", "Potency": "active: 16.4 µM"},
      {"smiles": "COc1cc(/C=N/NC(=O)CN2CCCCC2)ccc1OCc1ccc(Br)cc1", "Potency": "inconclusive: 18.4 µM [cytotoxic, single point]"},
      {"smiles": "COc1ccc(C(=O)NC2CCCCCC2)cc1S(=O)(=O)Nc1ccc(Br)cc1", "Potency": "inactive"},
      {"smiles": "C/C(=N/Nc1nc(C)cc(-c2ccccc2)n1)c1ccco1", "Potency": "active: 16.4 µM"},
      {"smiles": "CCOC(=O)c1sc2ncn(CC(=O)Nc3ccc(C)cc3C)c(=O)c2c1C", "Potency": "inconclusive: 18.4 µM [rising, single point]"},
      {"smiles": "CC(C)(C)n1nnnc1C(c1ccncc1)N1CCN(C2CCCCC2)CC1", "note": "(stereo not drawn)", "Potency": "inactive"},
      {"smiles": "COC(=O)c1ccc(CNC(=O)c2ccc3c(c2)NC(=O)CS3)cc1", "Potency": "inconclusive: 29.1 µM [rising, single point]"},
      {"smiles": "COc1cc(-c2cc(NC(C)=O)c3ncc(-c4cc(OC)c(OC)c(OC)c4)n3c2)cc(OC)c1OC", "Potency": "inconclusive: 29.1 µM [cytotoxic, single point]"},
      {"smiles": "COC(=O)c1ccc(Cn2c(SCc3cccc(C)c3)nc3ccncc32)cc1", "Potency": "inactive"},
      {"smiles": "COC(=O)c1ccccc1NC(=O)N1CCN(c2ccccc2)CC1", "Potency": "inactive"},
      {"smiles": "COc1ccccc1-c1nn(CCC(=O)Nc2cccc(C(C)=O)c2)c2nc(C)cc(C)c12", "Potency": "inconclusive: 29.1 µM [cytotoxic, single point]"},
      {"smiles": "Cc1cc(C)c2[nH]c(=O)c(C(c3nnnn3CC3CCCO3)N3CCC(C)CC3)cc2c1", "note": "(stereo not drawn)", "Potency": "active: 4.61 µM"},
      {"smiles": "CC(=O)Nc1ccc(NC(=O)CN(c2cccc([N+](=O)[O-])c2)S(C)(=O)=O)cc1", "Potency": "inconclusive: 25.9 µM [cytotoxic, single point]"},
      {"smiles": "CC1CCc2nc3ncn(CC(=O)Nc4cccc(C#N)c4)c(=O)c3cc2C1", "note": "(stereo not drawn)", "Potency": "inconclusive: 10.3 µM [rising, partial curve, poor fit]"},
      {"smiles": "Cc1cc([N+](=O)[O-])ccc1NCc1ccc2c(c1)OCCO2", "Potency": "inconclusive: 18.4 µM [cytotoxic, partial curve]"},
      {"smiles": "COc1cccc(NC(=O)c2cn(C3CCCCC3)c(=O)c3c2c2ccccc2n3C)c1", "Potency": "inactive"},
      {"smiles": "CCC1CCCCN1CCCNC(=O)CCCNC(=O)Cn1cnc2sc3c(c2c1=O)CCCC3", "note": "(stereo not drawn)", "Potency": "inconclusive: 29.1 µM [rising, single point]"},
      {"smiles": "CCOC(=O)N1CCN(C(=O)c2ccc(N(Cc3ccccc3)S(C)(=O)=O)cc2)CC1", "Potency": "active: 16.4 µM"},
      {"smiles": "CCn1c(=O)cc(SCC(=O)N(C)Cc2ccccc2)c2ccccc21", "Potency": "active: 4.61 µM"},
      {"smiles": "CCC(C)NC(=O)C1c2ccccc2C(=O)N1Cc1ccccc1", "note": "(stereo not drawn)", "Potency": "inconclusive: 32.6 µM [rising, single point]"},
      {"smiles": "O=S(=O)(Nc1ccc(-c2ccc(N3CCCC3)nn2)cc1)c1ccc(Br)cc1", "Potency": "inactive"},
      {"smiles": "CCc1cc(=O)oc2c(C)c(O[C@@H]3O[C@H](CO)[C@@H](O)[C@H](O)[C@H]3O)ccc12", "Potency": "inconclusive: 29.1 µM [cytotoxic, single point]"},
      {"smiles": "CCC(C(=O)Nc1ccccn1)c1ccccc1", "note": "(stereo not drawn)", "Potency": "inconclusive: 1.3 µM [cytotoxic, partial curve, poor fit]"},
      {"smiles": "CC(=O)Nc1ccc(NC(=O)C2Cc3c(-c4ccc(Cl)cc4)ccnc3O2)cc1", "note": "(stereo not drawn)", "Potency": "inactive"},
      {"smiles": "COC(=O)c1sc2nc(-c3ccccc3)c3c(c2c1N)CCCC3", "Potency": "inactive"}
    ]}
  ]
}
